Assay [1] concerns the target HDAC5 (histone deacetylase 5), in mouse embryonic fibroblasts (UniProt Q9Z2V6). The assay can be described thus: co-IP; lysates of MEFs in IP lysis buffer; Co-Immunoprecipitation Kit (ThermoFisher #26149); antibodies to HDAC5, Smad7, MEF2A, NF-κB p65; normal rabbit IgG as negative control; for Smad7 before or after TGF-β1 addition.
For assay [2], the target named is T1, HDAC5 (histone deacetylase 5), in mouse embryonic fibroblasts, Q9Z2V6.
T1 chain: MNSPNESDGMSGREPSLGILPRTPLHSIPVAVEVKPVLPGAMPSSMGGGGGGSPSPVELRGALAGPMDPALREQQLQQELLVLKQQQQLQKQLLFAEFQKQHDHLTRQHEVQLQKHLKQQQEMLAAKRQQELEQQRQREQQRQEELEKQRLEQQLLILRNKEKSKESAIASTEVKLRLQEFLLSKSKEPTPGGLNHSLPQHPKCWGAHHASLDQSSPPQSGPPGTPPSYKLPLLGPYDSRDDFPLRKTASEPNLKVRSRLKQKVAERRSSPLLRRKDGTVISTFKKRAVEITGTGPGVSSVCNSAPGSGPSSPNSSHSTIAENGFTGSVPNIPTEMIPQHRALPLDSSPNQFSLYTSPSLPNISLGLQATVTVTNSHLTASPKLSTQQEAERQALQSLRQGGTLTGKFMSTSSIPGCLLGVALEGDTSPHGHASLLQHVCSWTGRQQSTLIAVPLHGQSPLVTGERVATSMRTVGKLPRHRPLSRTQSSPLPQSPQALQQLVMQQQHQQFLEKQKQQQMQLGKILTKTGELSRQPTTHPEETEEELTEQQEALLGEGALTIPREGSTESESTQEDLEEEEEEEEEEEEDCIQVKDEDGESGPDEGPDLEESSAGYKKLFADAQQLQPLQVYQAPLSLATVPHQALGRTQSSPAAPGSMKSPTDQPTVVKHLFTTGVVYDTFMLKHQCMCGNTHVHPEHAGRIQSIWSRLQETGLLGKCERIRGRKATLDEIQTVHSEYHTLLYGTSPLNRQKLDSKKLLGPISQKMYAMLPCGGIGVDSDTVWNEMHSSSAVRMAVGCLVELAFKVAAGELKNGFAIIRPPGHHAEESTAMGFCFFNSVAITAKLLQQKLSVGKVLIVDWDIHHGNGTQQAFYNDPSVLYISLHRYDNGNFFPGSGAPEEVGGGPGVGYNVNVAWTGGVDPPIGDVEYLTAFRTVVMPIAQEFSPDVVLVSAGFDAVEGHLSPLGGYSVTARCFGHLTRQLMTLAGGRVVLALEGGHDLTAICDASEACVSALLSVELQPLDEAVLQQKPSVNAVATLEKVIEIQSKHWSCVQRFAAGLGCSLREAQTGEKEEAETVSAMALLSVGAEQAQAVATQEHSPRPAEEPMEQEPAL
The description is as above. Conditions: remark: other sources report otherwise.

The chains behind the UniProt entries cited, without tags or fusion partners.
UniProt Q60929: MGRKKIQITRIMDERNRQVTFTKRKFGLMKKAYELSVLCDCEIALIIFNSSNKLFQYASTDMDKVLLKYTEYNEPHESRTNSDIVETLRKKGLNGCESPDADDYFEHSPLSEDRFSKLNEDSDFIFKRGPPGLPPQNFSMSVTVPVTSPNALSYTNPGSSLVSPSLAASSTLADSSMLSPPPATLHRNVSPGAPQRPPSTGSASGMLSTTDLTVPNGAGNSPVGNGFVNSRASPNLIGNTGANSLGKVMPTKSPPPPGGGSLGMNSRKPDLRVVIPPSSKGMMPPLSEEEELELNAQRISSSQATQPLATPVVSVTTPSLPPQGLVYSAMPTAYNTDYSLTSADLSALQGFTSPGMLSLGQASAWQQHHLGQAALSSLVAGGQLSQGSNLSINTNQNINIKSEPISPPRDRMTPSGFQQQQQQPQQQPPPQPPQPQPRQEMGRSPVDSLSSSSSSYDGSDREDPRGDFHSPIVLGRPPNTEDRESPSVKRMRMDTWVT
UniProt O35253: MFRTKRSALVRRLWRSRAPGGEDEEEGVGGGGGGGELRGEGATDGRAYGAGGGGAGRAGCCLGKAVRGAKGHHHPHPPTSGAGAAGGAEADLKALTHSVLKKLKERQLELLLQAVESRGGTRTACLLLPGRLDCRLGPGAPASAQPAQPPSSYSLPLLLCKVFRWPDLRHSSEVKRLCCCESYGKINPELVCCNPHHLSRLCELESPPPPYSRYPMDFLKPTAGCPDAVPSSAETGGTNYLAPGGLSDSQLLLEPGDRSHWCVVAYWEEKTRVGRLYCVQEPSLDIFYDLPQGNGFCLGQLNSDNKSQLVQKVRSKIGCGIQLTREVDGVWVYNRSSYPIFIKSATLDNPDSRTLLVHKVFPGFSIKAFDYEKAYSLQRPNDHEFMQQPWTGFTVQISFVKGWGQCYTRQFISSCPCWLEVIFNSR

These are yes or no findings as the source states them, for the method shown. In cells and extracts the contact can be indirect. Some binding calls cover weakened binding; strength is not graded here. For part of these data: Sequences can lack the tags named with a protein.

“MEF2A (myocyte enhancer factor 2A), in mouse embryonic fibroblasts (from UniProt Q60929 1-498)”: the binding entry in assay [1] was “binds”. As for “Smad7, in mouse embryonic fibroblasts (from UniProt O35253 1-426)”, the binding result in assay [1] was “no binding”.

B1: NF-κB p65, in mouse embryonic fibroblasts, Q04207 1-549 (protein)
chain: MDDLFPLIFPSEPAQASGPYVEIIEQPKQRGMRFRYKCEGRSAGSIPGERSTDTTKTHPTIKINGYTGPGTVRISLVTKDPPHRPHPHELVGKDCRDGYYEADLCPDRSIHSFQNLGIQCVKKRDLEQAISQRIQTNNNPFHVPIEEQRGDYDLNAVRLCFQVTVRDPAGRPLLLTPVLSHPIFDNRAPNTAELKICRVNRNSGSCLGGDEIFLLCDKVQKEDIEVYFTGPGWEARGSFSQADVHRQVAIVFRTPPYADPSLQAPVRVSMQLRRPSDRELSEPMEFQYLPDTDDRHRIEEKRKRTYETFKSIMKKSPFNGPTEPRPPTRRIAVPTRNSTSVPKPAPQPYTFPASLSTINFDEFSPMLLPSGQISNQALALAPSSAPVLAQTMVPSSAMVPLAQPPAPAPVLTPGPPQSLSAPVPKSTQAGEGTLSEALLHLQFDADEDLGALLGNSTDPGVFTDLASVDNSEFQQLLNQGVSMSHSTAEPMLMEYPEAITRLVTGSQRPPDPAPTPLGTSGLPNGLSGDEDFSSIADMDFSALLSQISS
As for B1, in assay [2], the binding result was “no binding”.

The record behind these values is PMC9576526.
